Some of the results follow. The data scatter; read single values as rough.
How the values were obtained:
[1] = compound: ClCC(=O)N[C@@H]1CCCc2ccccc12; experiment: log2 mean competition ratio of IA-DTB cysteine labelling (DMSO/compound) (log2 ratio); higher = stronger cysteine engagement by compound; settings: treatment time: 4 h, cell line lysate: HEK293T
Experimental: (§1)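 IA-DTB competitive cysteine chemoproteomics in HEK293T RIPA lysate. Lysates were treated with compound 29 or 30 at 50 or 200 µM for 4 h, then IA-DTB (500 µM, 1 h), trypsin-digested, NeutrAvidin-enriched and analysed by diaPASEF. Competition ratio = intensity DMSO / intensity compound (n=4 treated, n=64 DMSO); binding: mean log2 CR ≥ 1 and p ≤ 0.05 plus QC filters. Target is the cysteine site.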

The chains behind the UniProt entries cited, without tags or fusion partners. Where a name states a change or a piece, a line headed by the entry shows the natural chain unless it says otherwise. Residues count along the entry.
UniProt Q8NCM8: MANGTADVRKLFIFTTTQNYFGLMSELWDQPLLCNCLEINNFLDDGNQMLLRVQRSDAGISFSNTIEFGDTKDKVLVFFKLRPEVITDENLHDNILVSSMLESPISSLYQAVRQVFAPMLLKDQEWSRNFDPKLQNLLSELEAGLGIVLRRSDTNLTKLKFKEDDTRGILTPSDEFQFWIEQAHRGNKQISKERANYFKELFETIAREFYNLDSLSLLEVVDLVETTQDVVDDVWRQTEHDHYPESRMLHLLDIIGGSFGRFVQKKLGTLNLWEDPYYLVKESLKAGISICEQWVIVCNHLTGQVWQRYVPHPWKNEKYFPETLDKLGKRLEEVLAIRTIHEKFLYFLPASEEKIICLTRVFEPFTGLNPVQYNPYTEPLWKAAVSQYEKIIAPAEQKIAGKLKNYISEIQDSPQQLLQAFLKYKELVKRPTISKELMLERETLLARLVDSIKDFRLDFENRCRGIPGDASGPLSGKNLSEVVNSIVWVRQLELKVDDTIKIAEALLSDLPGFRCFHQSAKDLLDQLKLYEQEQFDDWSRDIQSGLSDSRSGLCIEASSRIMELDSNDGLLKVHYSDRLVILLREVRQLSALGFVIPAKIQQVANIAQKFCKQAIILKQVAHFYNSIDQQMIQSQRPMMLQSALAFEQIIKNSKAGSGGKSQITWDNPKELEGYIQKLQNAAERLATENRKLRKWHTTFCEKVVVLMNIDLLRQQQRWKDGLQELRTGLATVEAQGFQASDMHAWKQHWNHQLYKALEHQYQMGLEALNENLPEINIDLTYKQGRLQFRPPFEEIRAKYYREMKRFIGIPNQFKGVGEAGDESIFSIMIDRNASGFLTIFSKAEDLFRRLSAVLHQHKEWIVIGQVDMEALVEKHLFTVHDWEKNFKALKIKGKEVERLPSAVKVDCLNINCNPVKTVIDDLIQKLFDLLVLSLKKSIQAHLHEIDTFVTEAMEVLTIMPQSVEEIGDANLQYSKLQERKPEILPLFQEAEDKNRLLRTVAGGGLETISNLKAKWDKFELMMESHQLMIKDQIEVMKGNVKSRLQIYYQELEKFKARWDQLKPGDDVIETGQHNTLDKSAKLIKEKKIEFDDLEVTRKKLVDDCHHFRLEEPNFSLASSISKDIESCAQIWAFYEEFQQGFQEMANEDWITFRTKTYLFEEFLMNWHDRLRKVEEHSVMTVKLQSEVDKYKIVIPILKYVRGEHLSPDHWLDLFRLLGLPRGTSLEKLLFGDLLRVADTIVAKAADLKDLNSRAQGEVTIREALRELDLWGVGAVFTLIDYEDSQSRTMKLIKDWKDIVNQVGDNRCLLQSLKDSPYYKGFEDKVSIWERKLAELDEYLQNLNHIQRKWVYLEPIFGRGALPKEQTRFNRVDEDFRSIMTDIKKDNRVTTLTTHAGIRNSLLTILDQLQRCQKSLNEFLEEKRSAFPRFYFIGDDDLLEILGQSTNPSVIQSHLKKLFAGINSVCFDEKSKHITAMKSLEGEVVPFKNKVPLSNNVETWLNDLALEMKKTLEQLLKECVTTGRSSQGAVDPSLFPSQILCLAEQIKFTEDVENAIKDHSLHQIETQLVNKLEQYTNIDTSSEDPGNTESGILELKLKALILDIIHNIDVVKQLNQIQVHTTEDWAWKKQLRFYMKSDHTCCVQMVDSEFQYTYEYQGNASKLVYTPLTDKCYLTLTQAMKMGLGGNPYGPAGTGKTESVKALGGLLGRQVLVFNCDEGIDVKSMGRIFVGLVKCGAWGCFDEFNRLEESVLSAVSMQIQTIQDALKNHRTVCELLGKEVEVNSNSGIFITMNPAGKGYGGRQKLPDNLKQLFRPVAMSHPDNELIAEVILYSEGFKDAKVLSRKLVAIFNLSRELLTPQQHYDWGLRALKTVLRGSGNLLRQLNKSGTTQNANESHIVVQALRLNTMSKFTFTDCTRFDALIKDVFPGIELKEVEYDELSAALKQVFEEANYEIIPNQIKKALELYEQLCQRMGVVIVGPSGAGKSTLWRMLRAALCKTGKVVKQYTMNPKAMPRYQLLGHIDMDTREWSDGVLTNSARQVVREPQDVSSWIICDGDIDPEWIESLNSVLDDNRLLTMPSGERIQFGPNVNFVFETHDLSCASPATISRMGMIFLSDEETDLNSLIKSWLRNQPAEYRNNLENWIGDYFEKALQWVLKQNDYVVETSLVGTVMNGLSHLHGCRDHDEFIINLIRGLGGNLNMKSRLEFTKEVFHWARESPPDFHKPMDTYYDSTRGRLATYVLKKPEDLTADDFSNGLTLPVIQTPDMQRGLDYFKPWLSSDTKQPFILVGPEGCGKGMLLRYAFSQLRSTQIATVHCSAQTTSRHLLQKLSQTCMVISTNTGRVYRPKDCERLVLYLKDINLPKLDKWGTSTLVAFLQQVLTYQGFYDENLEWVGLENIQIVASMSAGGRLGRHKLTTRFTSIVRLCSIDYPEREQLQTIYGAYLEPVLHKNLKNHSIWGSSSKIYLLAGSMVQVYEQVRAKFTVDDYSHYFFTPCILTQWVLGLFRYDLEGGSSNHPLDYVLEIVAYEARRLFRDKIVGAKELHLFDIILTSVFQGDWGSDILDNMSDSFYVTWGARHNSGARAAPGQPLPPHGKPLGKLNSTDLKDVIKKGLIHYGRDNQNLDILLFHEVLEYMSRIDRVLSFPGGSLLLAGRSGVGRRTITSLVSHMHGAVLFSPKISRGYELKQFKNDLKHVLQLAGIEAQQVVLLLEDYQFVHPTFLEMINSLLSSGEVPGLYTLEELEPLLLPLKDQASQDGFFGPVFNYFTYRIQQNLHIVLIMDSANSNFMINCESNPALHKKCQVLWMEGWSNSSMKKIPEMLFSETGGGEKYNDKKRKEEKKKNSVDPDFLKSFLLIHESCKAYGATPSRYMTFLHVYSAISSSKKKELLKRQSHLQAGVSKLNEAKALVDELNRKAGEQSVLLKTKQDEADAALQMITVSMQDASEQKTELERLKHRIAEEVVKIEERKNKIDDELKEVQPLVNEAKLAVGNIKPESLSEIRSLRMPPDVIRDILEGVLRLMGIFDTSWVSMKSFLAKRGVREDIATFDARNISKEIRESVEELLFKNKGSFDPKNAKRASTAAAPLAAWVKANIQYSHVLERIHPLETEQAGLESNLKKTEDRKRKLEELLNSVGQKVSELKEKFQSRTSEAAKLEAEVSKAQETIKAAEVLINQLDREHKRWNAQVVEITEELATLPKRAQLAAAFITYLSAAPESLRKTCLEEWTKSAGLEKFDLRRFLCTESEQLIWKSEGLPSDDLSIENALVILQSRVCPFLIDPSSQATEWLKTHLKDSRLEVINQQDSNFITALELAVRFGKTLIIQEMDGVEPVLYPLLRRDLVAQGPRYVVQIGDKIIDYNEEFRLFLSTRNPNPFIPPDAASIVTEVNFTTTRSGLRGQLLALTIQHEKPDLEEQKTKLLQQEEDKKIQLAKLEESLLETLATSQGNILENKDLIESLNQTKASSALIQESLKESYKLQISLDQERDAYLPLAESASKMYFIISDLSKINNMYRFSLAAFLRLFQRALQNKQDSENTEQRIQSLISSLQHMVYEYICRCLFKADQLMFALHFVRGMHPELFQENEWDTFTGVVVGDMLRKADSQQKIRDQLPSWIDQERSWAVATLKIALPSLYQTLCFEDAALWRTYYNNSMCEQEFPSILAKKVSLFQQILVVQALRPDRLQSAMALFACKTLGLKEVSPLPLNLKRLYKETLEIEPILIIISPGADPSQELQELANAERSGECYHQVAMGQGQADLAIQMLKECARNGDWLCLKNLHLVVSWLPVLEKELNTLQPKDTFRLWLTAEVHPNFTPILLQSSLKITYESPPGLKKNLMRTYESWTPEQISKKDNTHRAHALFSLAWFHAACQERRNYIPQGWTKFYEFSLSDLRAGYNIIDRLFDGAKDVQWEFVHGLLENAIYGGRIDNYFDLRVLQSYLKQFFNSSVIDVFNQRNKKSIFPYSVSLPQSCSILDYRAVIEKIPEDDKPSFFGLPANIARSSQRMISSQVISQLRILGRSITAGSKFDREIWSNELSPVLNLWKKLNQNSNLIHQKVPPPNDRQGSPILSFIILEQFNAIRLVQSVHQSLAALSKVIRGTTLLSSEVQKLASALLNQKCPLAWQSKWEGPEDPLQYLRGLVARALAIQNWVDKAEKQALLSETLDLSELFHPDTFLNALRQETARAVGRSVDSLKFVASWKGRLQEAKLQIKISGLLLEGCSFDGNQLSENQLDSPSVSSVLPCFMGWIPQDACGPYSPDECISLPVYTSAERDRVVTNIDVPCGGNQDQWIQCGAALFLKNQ
UniProt Q14156: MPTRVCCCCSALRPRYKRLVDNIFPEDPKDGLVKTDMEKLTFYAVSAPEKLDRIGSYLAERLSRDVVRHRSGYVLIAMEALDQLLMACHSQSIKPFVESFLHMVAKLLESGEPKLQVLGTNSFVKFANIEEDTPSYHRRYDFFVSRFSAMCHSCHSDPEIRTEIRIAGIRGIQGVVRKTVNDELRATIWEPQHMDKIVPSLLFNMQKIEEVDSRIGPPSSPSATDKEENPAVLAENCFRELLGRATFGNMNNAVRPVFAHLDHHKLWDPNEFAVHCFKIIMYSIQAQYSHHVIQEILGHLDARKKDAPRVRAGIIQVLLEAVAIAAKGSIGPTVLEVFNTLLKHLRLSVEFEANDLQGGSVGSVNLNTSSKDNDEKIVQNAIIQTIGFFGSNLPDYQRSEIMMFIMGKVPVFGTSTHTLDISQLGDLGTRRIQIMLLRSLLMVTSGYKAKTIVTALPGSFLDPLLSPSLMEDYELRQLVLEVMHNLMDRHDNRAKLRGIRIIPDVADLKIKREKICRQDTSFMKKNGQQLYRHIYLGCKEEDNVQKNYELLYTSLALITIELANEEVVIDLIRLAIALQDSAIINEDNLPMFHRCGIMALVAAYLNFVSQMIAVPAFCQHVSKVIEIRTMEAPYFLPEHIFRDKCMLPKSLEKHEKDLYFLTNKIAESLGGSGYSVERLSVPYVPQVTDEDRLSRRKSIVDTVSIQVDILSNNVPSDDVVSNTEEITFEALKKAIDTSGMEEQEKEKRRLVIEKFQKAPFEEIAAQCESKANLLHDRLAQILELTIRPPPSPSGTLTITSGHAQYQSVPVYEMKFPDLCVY
UniProt Q7L2H7, 130-149: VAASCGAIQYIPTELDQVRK
UniProt Q14152, whole entry, looked up: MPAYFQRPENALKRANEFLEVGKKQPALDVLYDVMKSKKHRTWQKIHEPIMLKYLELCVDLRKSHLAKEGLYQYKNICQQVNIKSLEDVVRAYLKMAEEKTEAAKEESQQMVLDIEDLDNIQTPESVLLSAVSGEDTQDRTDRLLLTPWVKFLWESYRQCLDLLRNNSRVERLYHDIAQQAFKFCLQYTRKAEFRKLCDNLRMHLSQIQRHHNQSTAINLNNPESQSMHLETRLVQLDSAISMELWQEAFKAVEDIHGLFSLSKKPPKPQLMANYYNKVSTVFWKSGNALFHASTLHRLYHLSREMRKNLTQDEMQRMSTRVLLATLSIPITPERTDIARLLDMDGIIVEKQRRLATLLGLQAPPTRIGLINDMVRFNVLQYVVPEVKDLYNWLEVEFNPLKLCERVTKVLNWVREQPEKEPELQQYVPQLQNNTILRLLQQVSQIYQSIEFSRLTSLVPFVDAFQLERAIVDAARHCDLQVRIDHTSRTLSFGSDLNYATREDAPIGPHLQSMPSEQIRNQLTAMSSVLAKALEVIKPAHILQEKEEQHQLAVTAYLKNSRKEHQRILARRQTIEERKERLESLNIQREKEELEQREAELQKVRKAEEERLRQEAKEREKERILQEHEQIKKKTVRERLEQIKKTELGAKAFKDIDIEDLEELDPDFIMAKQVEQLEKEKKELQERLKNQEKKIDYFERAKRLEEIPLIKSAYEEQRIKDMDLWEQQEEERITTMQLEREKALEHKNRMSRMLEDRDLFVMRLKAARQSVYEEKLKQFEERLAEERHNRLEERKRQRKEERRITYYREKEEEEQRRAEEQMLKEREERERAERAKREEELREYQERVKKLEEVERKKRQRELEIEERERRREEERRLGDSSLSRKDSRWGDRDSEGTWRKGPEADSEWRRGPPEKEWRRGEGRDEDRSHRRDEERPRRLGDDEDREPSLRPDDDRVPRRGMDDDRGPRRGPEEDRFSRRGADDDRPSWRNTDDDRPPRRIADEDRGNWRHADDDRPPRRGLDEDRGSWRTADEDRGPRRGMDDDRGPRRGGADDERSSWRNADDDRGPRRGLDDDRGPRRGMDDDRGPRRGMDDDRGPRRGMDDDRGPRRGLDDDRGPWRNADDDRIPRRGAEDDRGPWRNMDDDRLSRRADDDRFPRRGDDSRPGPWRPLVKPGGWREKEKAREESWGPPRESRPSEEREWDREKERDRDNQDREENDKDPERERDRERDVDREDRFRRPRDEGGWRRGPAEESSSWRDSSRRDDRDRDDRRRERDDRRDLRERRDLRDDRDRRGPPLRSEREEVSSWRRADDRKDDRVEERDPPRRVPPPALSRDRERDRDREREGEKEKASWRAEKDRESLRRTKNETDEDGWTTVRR
UniProt Q7Z2Z2, 453-476: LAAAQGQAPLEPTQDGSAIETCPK

[2] = compound: ClCC(=O)N[C@H]1CCCc2ccccc12; experiment: as above; settings: treatment time: 4 h, cell line lysate: HEK293T
Experimental: as §1

| Target | log2 mean competition ratio ([1]; 50 µM) | log2 mean competition ratio ([1]; 200 µM) | log2 mean competition ratio ([2]; 50 µM) | log2 mean competition ratio ([2]; 200 µM) |
| --- | --- | --- | --- | --- |
| DST C5922 (UniProt Q03001) | -0.126 | 0.0425 | 0.00471 | 0.129 |
| EDRF1 C1007 (UniProt Q3B7T1) | -0.0229 | 0.304 | – | – |
| DUT C222 | 0.00396 | -0.112 | 0.298 | -0.102 |
| ECT2 C584 (UniProt Q9H8V3) | 0.176 | 0.189 | 0.0506 | 0.172 |
| DYNC1H1 C3389 (UniProt Q14204) | 0.0296 | -0.228 | 0.26 | -0.107 |
| DYNC2H1 C3657 (UniProt Q8NCM8) | 0.179 | 0.324 | 0.081 | 0.0671 |
| DUSP12 C11 | -0.15 | 0.212 | 0.587 | 0.374 |
| EFR3A C767 (UniProt Q14156) | -0.214 | 0.0535 | -0.472 | -0.00469 |
| EIF3M C134 (UniProt Q7L2H7) | -0.149 | -0.16 | -0.103 | -0.356 |
| EIF4G3 C301 | -0.166 | -0.178 | 0.0788 | 0.0125 |
| EIF3A C160 (UniProt Q14152) | 0.346 | 0.121 | -0.593 | 0.0278 |
| EFL1 C474 (UniProt Q7Z2Z2) | -0.375 | 0.0175 | -0.0467 | -0.0678 |
| EBF3 C264 | -0.222 | 0.459 | -0.3 | 0.262 |
| DYNC2H1 C1970 (UniProt Q8NCM8) | 0.295 | -0.122 | -0.216 | -0.0404 |
| DTL C559 (UniProt Q9NZJ0) | 0.0949 | 0.616 | -0.129 | 0.378 |
| DROSHA C920 (UniProt Q9NRR4) | -0.302 | -0.134 | 0.000112 | 0.0945 |
| EIF3L C417 (UniProt Q9Y262) | -0.152 | -0.246 | -0.0795 | -0.056 |
| DSP C3 (UniProt P15924) | 0.0833 | 0.205 | -0.0647 | 0.238 |
| EGFR C775 (UniProt P00533) | -0.0391 | 0.0372 | 0.15 | 0.317 |
| ECPAS C1638 (UniProt Q5VYK3) | 0.0368 | -0.199 | -0.378 | -0.0428 |
| DUS1L C146 (UniProt Q6P1R4) | -0.104 | -0.0407 | 0.312 | -0.0217 |
| DZIP3 C328 (UniProt Q86Y13) | 0.0129 | -0.0246 | -0.658 | -0.154 |

Quoted from above (10 entries):

| Target | log2 mean competition ratio ([1]; 50 µM) | log2 mean competition ratio ([1]; 200 µM) | log2 mean competition ratio ([2]; 50 µM) | log2 mean competition ratio ([2]; 200 µM) |
| --- | --- | --- | --- | --- |
| DST C5922 (UniProt Q03001) | -0.126 | 0.0425 | 0.00471 | 0.129 |
| EDRF1 C1007 (UniProt Q3B7T1) | -0.0229 | 0.304 | – | – |
| DUT C222 | 0.00396 | -0.112 | 0.298 | -0.102 |
| ECT2 C584 (UniProt Q9H8V3) | 0.176 | 0.189 | 0.0506 | 0.172 |
| DYNC1H1 C3389 (UniProt Q14204) | 0.0296 | -0.228 | 0.26 | -0.107 |
| DYNC2H1 C3657 (UniProt Q8NCM8) | 0.179 | 0.324 | 0.081 | 0.0671 |
| DUSP12 C11 | -0.15 | 0.212 | 0.587 | 0.374 |
| EFR3A C767 (UniProt Q14156) | -0.214 | 0.0535 | -0.472 | -0.00469 |
| EIF3M C134 (UniProt Q7L2H7) | -0.149 | -0.16 | -0.103 | -0.356 |
| EIF4G3 C301 | -0.166 | -0.178 | 0.0788 | 0.0125 |

More records follow:

| Target | log2 mean competition ratio ([1]; 50 µM) | log2 mean competition ratio ([1]; 200 µM) | log2 mean competition ratio ([2]; 50 µM) | log2 mean competition ratio ([2]; 200 µM) |
| --- | --- | --- | --- | --- |
| DYNC1H1 C3693 (UniProt Q14204) | -0.128 | -0.277 | 0.216 | -0.251 |
| EIF3A C198 (UniProt Q14152) | 0.193 | -0.0771 | 0.186 | -0.224 |
| EFHD2 C172 (UniProt Q96C19) | 0.352 | -0.474 | 0.521 | -0.229 |
| ELAC2 C753 (UniProt Q9BQ52) | 0.00868 | 0.208 | -0.518 | 0.24 |
| EIF2AK1 C140 (UniProt Q9BQI3) | -0.212 | 0.364 | -0.181 | 0.143 |
| DTNBP1 C302 (UniProt Q96EV8) | 0.118 | 0.147 | 0.0908 | 0.162 |
| EEFSEC C289 (UniProt P57772) | 0.0871 | 0.0719 | -0.242 | 0.199 |
| ELAC2 C421 (UniProt Q9BQ52) | 0.253 | 0.0487 | 0.228 | 0.205 |
| EIF2AK4 C454 (UniProt Q9P2K8) | -0.225 | 0.345 | -0.87 | -0.115 |
| EIF4EBP1 C7 (UniProt Q13541) | -0.019 | 0.0536 | 0.218 | 0.275 |
| DSTN C135 (UniProt P60981) | -0.0205 | -0.417 | 0.204 | -0.366 |
| EIF2S2 C309 (UniProt P20042) | 0.127 | -0.0399 | 0.291 | -0.0291 |
| EIF3C C79 (UniProt Q99613) | -0.00255 | -0.105 | -0.188 | 0.0586 |
| EEF2 C369 (UniProt P13639) | -0.337 | -0.456 | 0.00655 | -0.357 |
| DYNLT3 C8 (UniProt P51808) | 0.0352 | -0.169 | -0.514 | -0.324 |
| DTYMK C117 (UniProt P23919) | 0.148 | -0.0696 | 0.226 | 0.0411 |
| EEF1A2 C326 (UniProt Q05639) | -0.199 | 0.113 | -0.205 | 0.191 |
| EIF2B5 C414 | 0.248 | 0.0138 | 0.12 | -0.178 |
| DYNC1H1 C792 (UniProt Q14204) | 0.0721 | 0.0697 | -0.244 | -0.128 |
| ELL C121 (UniProt P55199) | -0.129 | -0.203 | -0.335 | 0.227 |
| EIF2S2 C226 (UniProt P20042) | -0.0173 | -0.167 | -0.0771 | 0.0416 |
